From patent US20250283871A1, “COMPOSITIONS AND METHODS FOR MODULATING THE INTERACTION BETWEEN SS18-SSX FUSION ONCOPROTEIN AND NUCLEOSOMES” (Dana-Farber Cancer Institute, Inc., priority 2020, published 2025) come the findings set out here.

For this data set, the system named is BAF complex subunits and histone proteins. In words: Mass spectrometry proteomics of purified HA-SS18 WT and HA-SS18-SSX1 complexes (Tables 5A-5E). Also noted: species or system human.
[1] abbreviates: HA-SS18SSX1_NE_peptides: protein co-purified with HA-SS18-SSX1 BAF complexes from soluble nuclear extract (NE), HEK-293T cells.
[2] abbreviates: HA-SS18WT_NE_peptides: proteins co-purified with HA-SS18 WT from nuclear extract (NE), HEK-293T.
Where [3] appears, read: HA-SS18WT_CHR_peptides: protein identified in HA-SS18 WT BAF complex purification from nuclease-treated solubilized chromatin (CHR), HEK-293T.
Where [4] appears, read: HA-SS18WT_NE_peptides: HA-SS18 WT complexes purified from nuclear extract (NE), HEK-293T, label = protein identified (Gene Symbol).

B1: ETFB (protein, UniProt P38117 2-255, looked up)
Electron transfer …: AELRVLVAVKRVIDYAVKIRVKPDRTGVVTDGVKHSMNPFCEIAVEEAVRLKEKKLVKEVIAVSCGPAQCQETIRTALAMGADRGIHVEVPPAEAERLGPLQVARVLAKLAEKEKVDLVLLGKQAIDDDCNQTGQMTAGFLDWPQGTFASQVTLEGDKLKVEREIDGGLETLRLKLPAVVTADLRLNEPRYATLPNIMKAKKKKIEVIKPGDLGVDLTSKLSVISVEDPPQRTAGVKVETTEDLVAKLKEIGRI
For the molecule B1, under setting [1], the “Total (peptides)” value came to 2 and the “Unique (peptides)” value is on record as 2. Under setting [2], the “Total (peptides)” value stood at 2 and the “Unique (peptides)” value stood at 2.

B2: SLC25A32 (protein, UniProt Q9H2D1 1-315, looked up)
Solute carrier family 25 …: MTGQGQSASGSSAWSTVFRHVRYENLIAGVSGGVLSNLALHPLDLVKIRFAVSDGLELRPKYNGILHCLTTIWKLDGLRGLYQGVTPNIWGAGLSWGLYFFFYNAIKSYKTEGRAERLEATEYLVSAAEAGAMTLCITNPLWVTKTRLMLQYDAVVNSPHRQYKGMFDTLVKIYKYEGVRGLYKGFVPGLFGTSHGALQFMAYELLKLKYNQHINRLPEAQLSTVEYISVAALSKIFAVAATYPYQVVRARLQDQHMFYSGVIDVITKTWRKEGVGGFYKGIAPNLIRVTPACCITFVVYENVSHFLLDLREKRK
Consider B2, for which, under setting [1], the “Total (peptides)” value is reported as 2 and the “Unique (peptides)” value is 2.

B3: PARP2 (protein, UniProt Q9UGN5 1-583, looked up)
Poly [ADP-ribose] polymerase 2: MAARRRRSTGGGRARALNESKRVNNGNTAPEDSSPAKKTRRCQRQESKKMPVAGGKANKDRTEDKQDGMPGRSWASKRVSESVKALLLKGKAPVDPECTAKVGKAHVYCEGNDVYDVMLNQTNLQFNNNKYYLIQLLEDDAQRNFSVWMRWGRVGKMGQHSLVACSGNLNKAKEIFQKKFLDKTKNNWEDREKFEKVPGKYDMLQMDYATNTQDEEETKKEESLKSPLKPESQLDLRVQELIKLICNVQAMEEMMMEMKYNTKKAPLGKLTVAQIKAGYQSLKKIEDCIRAGQHGRALMEACNEFYTRIPHDFGLRTPPLIRTQKELSEKIQLLEALGDIEIAIKLVKTELQSPEHPLDQHYRNLHCALRPLDHESYEFKVISQYLQSTHAPTHSDYTMTLLDLFEVEKDGEKEAFREDLHNRMLLWHGSRMSNWVGILSHGLRIAPPEAPITGYMFGKGIYFADMSSKSANYCFASRLKNTGLLLLSEVALGQCNELLEANPKAEGLLQGKHSTKGLGKMAPSSAHFVTLNGSTVPLGPASDTGILNPDGYTLNYNEYIVYNPNQVRMRYLLKVQFNFLQLW
For B3, under setting [1], the “Total (peptides)” value is reported as 2 and the “Unique (peptides)” value was determined as 2.

B4: ORC3 (protein, UniProt Q9UBD5 1-711, looked up)
Origin recognition complex …: MATSSMSKGCFVFKPNSKKRKISLPIEDYFNKGKNEPEDSKLRFETYQLIWQQMKSENERLQEELNKNLFDNLIEFLQKSHSGFQKNSRDLGGQIKLREIPTAALVLGVNVTDHDLTFGSLTEALQNNVTPYVVSLQAKDCPDMKHFLQKLISQLMDCCVDIKSKEEESVHVTQRKTHYSMDSLSSWYMTVTQKTDPKMLSKKRTTSSQWQSPPVVVILKDMESFATKVLQDFIIISSQHLHEFPLILIFGIATSPIIIHRLLPHAVSSLLCIELFQSLSCKEHLTTVLDKLLLTTQFPFKINEKVLQVLTNIFLYHDFSVQNFIKGLQLSLLEHFYSQPLSVLCCNLPEAKRRINFLSNNQCENIRRLPSFRRYVEKQASEKQVALLTNERYLKEETQLLLENLHVYHMNYFLVLRCLHKFTSSLPKYPLGRQIRELYCTCLEKNIWDSEEYASVLQLLRMLAKDELMTILEKCFKVFKSYCENHLGSTAKRIEEFLAQFQSLDETKEEEDASGSQPKGLQKTDLYHLQKSLLEMKELRRSKKQTKFEVLRENVVNFIDCLVREYLLPPETQPLHEVVYFSAAHALREHLNAAPRIALHTALNNPYYYLKNEALKSEEGCIPNIAPDICIAYKLHLECSRLINLVDWSEAFATVVTAAEKMDANSATSEEMNEIIHARFIRAVSELELLGFIKPTKQKTDHVARLTWGGC
Regarding B4, the “Total (peptides)” value under setting [1] stood at 2 and the “Total (peptides)” value under setting [2] is listed as 1. Also, the “Unique (peptides)” value was 2 under setting [1] and 1 under setting [2].

B5: ATP5J2 (protein, UniProt P56134 2-94, looked up)
ATP synthase F(0) complex …: ASVGECPAPVPVKDKKLLEVKLGELPSWILMRDFSPSGIFGAFQRGYYRYYNKYINVKKGSISGITMVLACYVLFSYSFSYKHLKHERLRKYH
For B5, under setting [1], the “Total (peptides)” value is given as 2 and the “Unique (peptides)” value came out at 2. In addition, under setting [3], the “Total (total peptides)” value is 1 and the “Unique (unique peptides)” value was 1. Under setting [2], the “Total (peptides)” value turned out to be 2 and the “Unique (peptides)” value stood at 2.

B6: HM13 (protein, UniProt Q8TCT9 1-377, looked up)
Signal peptide peptidase: MDSALSDPHNGSAEAGGPTNSTTRPPSTPEGIALAYGSLLLMALLPIFFGALRSVRCARGKNASDMPETITSRDAARFPIIASCTLLGLYLFFKIFSQEYINLLLSMYFFVLGILALSHTISPFMNKFFPASFPNRQYQLLFTQGSGENKEEIINYEFDTKDLVCLGLSSIVGVWYLLRKHWIANNLFGLAFSLNGVELLHLNNVSTGCILLGGLFIYDVFWVFGTNVMVTVAKSFEAPIKLVFPQDLLEKGLEANNFAMLGLGDVVIPGIFIALLLRFDISLKKNTHTYFYTSFAAYIFGLGLTIFIMHIFKHAQPALLYLVPACIGFPVLVALAKGEVTEMFSYEESNPKDPAAVTESKEGTEASASKGLEKKEK
For B6, under setting [1], the “Total (peptides)” value stood at 2 and the “Unique (peptides)” value is on record as 2. Under setting [4], the “Total (peptides)” value is 3 and the “Unique (peptides)” value was 2.

B7: GUF1 (protein, UniProt Q8N442 50-669, looked up)
Translation factor GUF1, …: SSAEFKEKLDMSRFPVENIRNFSIVAHVDHGKSTLADRLLELTGTIDKTKNNKQVLDKLQVERERGITVKAQTASLFYNCEGKQYLLNLIDTPGHVDFSYEVSRSLSACQGVLLVVDANEGIQAQTVANFFLAFEAQLSVIPVINKIDLKNADPERVENQIEKVFDIPSDECIKISAKLGTNVESVLQAIIERIPPPKVHRKNPLRALVFDSTFDQYRGVIANVALFDGVVSKGDKIVSAHTQKTYEVNEVGVLNPNEQPTHKLYAGQVGYLIAGMKDVTEAQIGDTLCLHKQPVEPLPGFKSAKPMVFAGMYPLDQSEYNNLKSAIEKLTLNDSSVTVHRDSSLALGAGWRLGFLGLLHMEVFNQRLEQEYNASVILTTPTVPYKAVLSSSKLIKEHREKEITIINPAQFPDKSKVTEYLEPVVLGTIITPDEYTGKIMMLCEARRAVQKNMIFIDQNRVMLKYLFPLNEIVVDFYDSLKSLSSGYASFDYEDAGYQTAELVKMDILLNGNTVEELVTVVHKDKAHSIGKAICERLKDSLPRQLFEIAIQAAIGSKIIARETVKAYRKNVLAKCYGGDITRKMKLLKRQAEGKKKLRKIGNVEVPKDAFIKVLKTQSSK
Consider B7, for which, under setting [1], the “Total (peptides)” value is listed as 2 and the “Unique (peptides)” value is 2. Under setting [2], the “Total (peptides)” value was found to be 1 and the “Unique (peptides)” value is reported as 1.

B8: NOM1 (protein, UniProt Q5C9Z4 1-860, looked up)
Nucleolar MIF4G …: MAASRSAGEAGPGGSQGRVVRMKRRGGRGPRRGPAGGGEKALKRLKLAVEEFVHATSEGEAPGGCEGRGAPVSFRPGGRKSRKELRKEKRHLRKARRLQRTAGPEQGPGLGGRSGAEEASGHRQDTEERARPAPSRDPSPPRKPRPSRVKAKATAATAKTRPSAAATAAARKRALLAANEEEDREIRKLERCLGLNKRKKKDGSSSVPLSFARDGLDYILGALESGKNSGLYDSSGEEEEDAGQTLPESDLESDSQDESEEEEEGDVEKEKKAQEAEAQSEDDDEDTEEEQGEEKEKGAQEKRRGKRVRFAEDEEKSENSSEDGDITDKSLCGSGEKYIPPHVRQAEETVDFKKKEELERLKKHVKGLLNRLSEPNMASISGQLEELYMAHSRKDMNDTLTSALMGACVTASAMPSRLMMEHVLLVSILHHTVGIEVGAHFLEAVVRKFDAIYKYGSEGKECDNLFTVIAHLYNFHVVQSLLIFDILKKLIGTFTEKDIELILLMLKNVGFSLRKDDALSLKELITEAQTKASGAGSEFQDQTRIRFMLETMLALKNNDMRKIPGYDPEPVEKLRKLQRALVRNAGSGSETQLRVSWDSVLSAEQTGRWWIVGSAWSGAPMIDNSHHTHLQKQLVGTVSSKILELARKQRMNTDIRRNIFCTIMTSEDFLDAFEKLLKLGLKDQQEREIIHVLMDCCLQEKTYNPFYAFLASKFCEYERRFQMTFQFSIWDKFRDLENLPATNFSNLVHLVAHLLKTKSLSLSILKVVEFSELDKPRVRFLRKVLSILLMETEVEDLSLIFTRVSDNPKLGVLREGLKLFISHFLLKNAQAHRSADEANVLREKADLATKCLQGKASLRM
In the case of B8, the “Total (peptides)” value was 2 under setting [1] and 1 under setting [2]. Further, the “Unique (peptides)” value reads like this: under setting [1], 2; under setting [2], 1.

B9: MTX1 (protein, UniProt Q13505 1-466, looked up)
Metaxin-1: MLLGGPPRSPRSGTSPKGPWSSTGHVQFGKSPQTWPRRTRPRSPEPAAPSGVRGSTWTRRRDSPRRAGPTALSRYVGHLWMGRRPPSPEARGPVPRSSAASRARRSLASPGISPGPLTATIGGAVAGGGPRQGRAEAHKEVFPGQRVGKMAAPMELFCWSGGWGLPSVDLDSLAVLTYARFTGAPLKVHKISNPWQSPSGTLPALRTSHGEVISVPHKIITHLRKEKYNADYDLSARQGADTLAFMSLLEEKLLPVLVHTFWIDTKNYVEVTRKWYAEAMPFPLNFFLPGRMQRQYMERLQLLTGEHRPEDEEELEKELYREARECLTLLSQRLGSQKFFFGDAPASLDAFVFSYLALLLQAKLPSGKLQVHLRGLHNLCAYCTHILSLYFPWDGAEVPPQRQTPAGPETEEEPYRRRNQILSVLAGLAAMVGYALLSGIVSIQRATPARAPGTRTLGMAEEDEEE
For B9, under setting [1], the “Total (peptides)” value amounted to 2 and the “Unique (peptides)” value came to 2. In addition, under setting [2], the “Total (peptides)” value stood at 2 and the “Unique (peptides)” value came to 2.

B10: LPCAT1 (protein, UniProt Q8NF37 1-534, looked up)
Lysophosphatidylcholine …: MRLRGCGPRAAPASSAGASDARLLAPPGRNPFVHELRLSALQKAQVALMTLTLFPVRLLVAAAMMLLAWPLALVASLGSAEKEPEQPPALWRKVVDFLLKAIMRTMWFAGGFHRVAVKGRQALPTEAAILTLAPHSSYFDAIPVTMTMSSIVMKAESRDIPIWGTLIQYIRPVFVSRSDQDSRRKTVEEIKRRAQSNGKWPQIMIFPEGTCTNRTCLITFKPGAFIPGAPVQPVVLRYPNKLDTITWTWQGPGALEILWLTLCQFHNQVEIEFLPVYSPSEEEKRNPALYASNVRRVMAEALGVSVTDYTFEDCQLALAEGQLRLPADTCLLEFARLVRGLGLKPEKLEKDLDRYSERARMKGGEKIGIAEFAASLEVPVSDLLEDMFSLFDESGSGEVDLRECVVALSVVCRPARTLDTIQLAFKMYGAQEDGSVGEGDLSCILKTALGVAELTVTDLFRAIDQEEKGKITFADFHRFAEMYPAFAEEYLYPDQTHFESCAETSPAPIPNGFCADFSPENSDAGRKPVRKKLD
In the case of B10, the “Total (peptides)” value runs as follows: under setting [1], 2; under setting [4], 2. Besides, the “Unique (peptides)” value was 2 under setting [1] and 2 under setting [4].
